PubChem BioAssay AID1508597, Cure First | 2020
This is a random part of the about 2,100 reagents, under one of the conditions tested. 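Calls flag viability under 80% in either arm, not effects specific to rucaparib; the reference for percent is not stated.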 Not given: the 100% reference.

Test: 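Survival screen with siRNA in ovarian cancer cells derived from patients, with or without rucaparib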 (primary screen)
Cell system: human ovarian carcinoma lines grown from tumours: OCI-P5x (papillary serous) and OCI-C5x (clear cell)
Knock-down reagent: siRNA pool against human genes, 1.25 pmol siRNA per well
Duration: 72 h or 96 h, depending on the cell culture
Conditions: rucaparib 20 µM (about IC30) or vehicle, present until read-out
Rucaparib or vehicle: Rucaparib
Cell line: OCI-C5x (clear cell)
Measured: 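ATP luminescence measured at 72 or 96 h according to the culture, then normalised and expressed as percent viability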
Reading the numbers: viability, normalised: higher = more viable cells remaining
Hit rule: 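a well counts as a hit if its normalised viability is under 80 percent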
Calls: active = viability under 80%; inactive = viability 80% or more

With RYK [SID405528598], technical replicate 1, what was measured?
viability, normalised (%): 53.4; outcome: active

What did the screen give for RYK [SID405528598], technical replicate 2?
viability, normalised (%): 67.5; outcome: active

How did the screen score RYK [SID405528598], technical replicate 3?
viability, normalised (%): 60.8; outcome: active

For DGKE [SID405527562], technical replicate 1, what does the deposit list?
viability, normalised (%): 50; outcome: active

For DGKE [SID405527562], technical replicate 2, what does the deposit list?
viability, normalised (%): 61.5; outcome: active

How did the screen score DGKE [SID405527562], technical replicate 3?
viability, normalised (%): 67.1; outcome: active

What did the screen give for RPS6KL1 [SID405527927], technical replicate 1?
viability, normalised (%): 54; outcome: active

What is on record for RPS6KL1 [SID405527927], technical replicate 2?
viability, normalised (%): 57.7; outcome: active

How did the screen score RPS6KL1 [SID405527927], technical replicate 3?
viability, normalised (%): 73.4; outcome: active

How did the screen score MIER3 [SID405527013], technical replicate 1?
viability, normalised (%): 51.4; outcome: active

Which result is listed for MIER3 [SID405527013], technical replicate 2?
viability, normalised (%): 38.5; outcome: active

Which result is listed for MIER3 [SID405527013], technical replicate 3?
viability, normalised (%): 46.2; outcome: active

Records above whose gene name begins with D or d:
DGKE [SID405527562], technical replicate 1 | viability, normalised (%): 50; outcome: active
DGKE [SID405527562], technical replicate 2 | viability, normalised (%): 61.5; outcome: active
DGKE [SID405527562], technical replicate 3 | viability, normalised (%): 67.1; outcome: active
